In the data set the test system is testis of Brown Norway rats. The data set can be described thus: Microscopy and stereology of the testis of aged Brown Norway rats treated 4 weeks with LH, T4 or LH+T4. The data set is classed as in vivo, Brown Norway rat. The note with it: 19M Brown Norway rats after 4 weeks subdermal osmotic pump (LH 24 μg/day, T4 5 μg/day), n=8. The text has this:
Male Brown Norway rats aged 3, 6, 12 (n=8 per group; 3M, 6M, and 12M, respectively), and 18 months (M) (n=32; 18M) were purchased from Harlan (Madison, Wis., United States of America). The 18M rats were divided equally into four groups (n=8 per group). Under deep inhalation anesthesia (METOFANE™; Malincroft Veterinary, Inc., Mundelein, Ill., United States of America), the four groups of 18M rats were implanted subdermally with ALZET™ mini-osmotic pumps (model 2ML4; Alza Corporation, Palo Alto, Calif., United States of America), containing saline (control), LH (24 μg/day; National Hormone and Pituitary Program, Los Angeles, Calif., United States of America), thyroxine (T4; 5 μg/day; Sigma, St. Louis, Mo., United States of America), and LH and T4 (LH+T4; two pumps, 24 […] of T4), respectively, for 4 weeks (to 19 months [19M] of age). These doses of LH (Mendis-Handagama et al., (1998) Tissue Cell 30:64-73) and thyroid hormone (Ariyaratne et al., (2000) Biol. Reprod. 63:1115-1123) were used based on previously published studies. Rats were maintained under conditions of controlled temperature (25° C.) and lighting (14 hour/10 hour light/dark cycle) and were housed individually (one rat per cage). The animals were fed with Agway PROLAB™ rat formula (Agway, Syracuse, N.Y., United States of America) and water ad libitum until they were sacrificed. The animal protocol employed (No. 488) meets the guidelines of the National Institutes of Health and was approved by the University of Tennessee Animal Care and Concerns Committee.
Pumps were filled with either saline, LH, or T4, and were primed in saline for 3 hours before implantation so that they would deliver their contents immediately on subdermal implantation into the interscapular region. The LH+T4 rats received two pumps each, one containing LH and one containing T4; the other rats received one pump containing either saline, LH, or T4. After 4 weeks of treatment, rats were sacrificed. In addition, implanted pumps were removed and examined to verify that they had delivered their contents as expected.
One testis of each rat in the 3M, 6M, 12M, and 19M age groups was removed, cleaned of fat, and weighed on a Mettler H54 balance to obtain the fresh testis weight. Using the flotation technique (Mendis-Handagama et al., (1988) Am. J. Anat. 181:12-22; Mori & Christensen, (1980) J. Cell. Biol. 84:340-354; and Mendis-Handagama & Ewing, (1990) J. Microsc. (Oxf) 159:73-82), the specific gravity of the fresh testis was determined as described previously (Mori & Christensen, (1980) J. Cell. Biol. 84:340-354 and Mendis-Handagama & Ewing, (1990) J. Microsc. (Oxford) 159:73-82), and the fresh testis volume was calculated by dividing the fresh testis weight by the specific gravity (in metric units, specific gravity equals density). This measurement is required to express Leydig cell numbers per testis, because numerical density is obtained as a number per unit volume of the testis. The testis was then decapsulated, and the entire testis was incubated for 3 hours in the same medium as described previously (Ariyaratne et al., (2000) Biol. Reprod. 63:1115-1123; Mendis-Handagama et al., (1998) Biol. Reprod. 59:351-357; Mendis-Handagama et al., (1990) J. Androl. 11:548-554; Ariyaratne et al., (2000) Biol. Reprod. 63:493-502; and Ariyaratne & Mendis-Handagama, (2000) Biol. Reprod. 62:158-168) to determine the LH-stimulated testosterone-secretory capacity per testis in vitro. Testosterone levels in the incubation medium were measured by RIA using commercially available kits (COAT-A-COUNT™), and the details of the assay are given above (see Laboratory Example 4). Testosterone-secretory capacity per Leydig cell was calculated by dividing the testosterone-secretory capacity per testis by the number of Leydig cells per testis. […]

Experimental findings from US7595056B1, “Methods of rejuvenating Leydig cells and enhancing testosterone production in a male subject” (University of Tennessee Research Foundation, priority 2002, dated 2009) are described below.

`N[C@@H](Cc1cc(I)c(Oc2cc(I)c(O)c(I)c2)c(I)c1)C(=O)O` [T4, L-3,5,3′,5′-tetraiodothyronine]: the “Mean Testis volume” value amounted to 1838 mm^3. Moreover, where the note is “mean”, the “Macrophage number per Testis” value is 7.65 10^6, the “Volume density of Blood vessels” value is recorded as 2.61%, the “Volume density of Connective tissue cells” value was 1 .25% and the “Volume density of Interstitium” value is listed as 12.165%. For the same molecule, under “mean”, the “Volume density of Lymphatic space” value came to 5.29% and the “Volume density of Macrophages” value turned out to be 0.523%. For the same molecule, where the note is “per testis”, the “Mean Absolute Volume of Blood vessels” value turned out to be 47.97 mm^3, the “Mean Absolute Volume of Connective tissue cells” value turned out to be 22.96 mm^3, the “Mean Absolute Volume of Interstitium” value is 226.74 mm^3 and the “Mean Absolute Volume of Lymphaticspace” value is given as 97.19 mm^3. The “Mean Absolute Volume of Macrophages” value (per testis) stood at 10.58 mm^3.
